From PubChem BioAssay AID2810 (NMMLSC, 2010)
Some of the results follow. Shown are side measurements of this screen, not its main read-out; they come without a call.

Assay: modulators of CD8 T cell-vesicle binding, confirmation, cherry-picked primary hits, two concentrations (AID 2810);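 also: lower values mean blocking of vesicle binding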;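 as to percent response (vesicle binding): ratio of mean FL2 vesicle stain of CD8+ cells to that row's control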
Settings: 2C CD8+ T cell-vesicle binding, flow cytometry; for double positive events: CD8+/vesicle+ events
[1] = at 15.4 µM, stronger effect = lower value

| Structure (SMILES) | double positive events (at 7.7 µM) [%] | double positive events [1] [%] | percent response (vesicle binding) (at 7.7 µM) [%] |
| --- | --- | --- | --- |
| CN1CCN(S(=O)(=O)c2ccc(C(=O)Nc3ccccc3)cc2)CC1 | 10.1 | 33.2 | 153 |
| O=C(CS(=O)(=O)c1c[nH]c2ccccc12)Nc1ccc(F)cc1 | 9.2 | 18.8 | 485 |
| NS(=O)(=O)c1ccc(CCNC(=O)C2CCCCC2)cc1 | 38.3 | 14.9 | 316 |
| O=C1C(=O)N(CCCn2ccnc2)C(c2ccc([N+](=O)[O-])cc2)/C1=C(\O)c1ccc2c(c1)OCCO2 (stereo not drawn) | 34.2 | 26.3 | 236 |
| CCN1CCN(C(=O)C(=O)c2cn(CC(=O)N(CC)CC)c3ccccc23)CC1 | 20.2 | 29.5 | 282 |
| Cc1ccc(S(=O)(=O)N2CCN(C(=O)CNC(=O)c3ccc(Cl)cc3)CC2)cc1 | 6.9 | 23.9 | 106 |
| Cc1ccccc1NC(=S)N(C)Cc1cn(C)c2ccccc12 | 14.9 | 17.1 | 127 |
| CC(C)C(C(=O)NC1=NCCS1)c1ccc(Cl)cc1 (stereo not drawn) | 26.1 | 11.5 | 259 |
| Cc1nnc(NC(=O)CCC(=O)N2CCN(S(=O)(=O)c3cc([N+](=O)[O-])ccc3C)CC2)s1 | 8.4 | 16.2 | 301 |
| Cn1c(=O)c2c(ncn2CC(=O)OCCCC(=O)c2ccc(Br)cc2)n(C)c1=O | 34.6 | 15.7 | 526 |
| CCOC(=O)c1ccc(NC(=S)Nc2cccc(C)n2)cc1 | 27.7 | 36.5 | 354 |
| Cn1cc(C(=O)N/N=C/C=C/c2ccccc2)ccc1=O | 23 | 13 | 340 |
| Cc1ccc(SCC(=O)NNC(=O)C2CCCCC2)cc1 | 16.5 | 9.8 | 470 |
| Cc1cc(=O)oc2c3c(cc(OCC(=O)NCc4ccncc4)c12)OC(C)(C)CC3 | 13.3 | 24.8 | 138 |
| CN1CCN(C(=O)c2cc3ccccc3cc2O)CC1 | 18.4 | 9.2 | 240 |
| O=C(Nc1cccc(F)c1)NC1CCCc2ccccc21 (stereo not drawn) | 9.6 | 16.8 | 391 |
| CCC(C)Sc1ccc(-c2nc3cc(C)ccn3c2NC2CCCCC2)cc1 (stereo not drawn) | 12.6 | 17 | 167 |
| O=C(/C=C/c1ccc(F)cc1)N1CCN(Cc2ccccc2)CC1 | 24.6 | 6.8 | 362 |
| O=C(COC(=O)CCCSc1nc2ccccc2[nH]1)Nc1cccc(F)c1 | 4.8 | 13.2 | 96.4 |
| COc1ccccc1NC(=O)c1ccc(NC(=O)CSc2ncccn2)cc1 | 10.6 | 27.9 | 421 |
| CCOC(=O)c1cc2occc2n1CC(=O)NC1CCC(C)CC1 (stereo not drawn) | 36.9 | 16.5 | 348 |

| Structure (SMILES) | double positive events (at 7.7 µM) [%] | double positive events [1] [%] | percent response (vesicle binding) (at 7.7 µM) [%] |
| --- | --- | --- | --- |
| Cc1cc(C)nc(SCc2nnc(SCC(=O)O)n2-c2ccccc2)n1 | 30.7 | 15.3 | 312 |
| CCOC(=O)c1cc(CC)sc1/N=C/C1C(=O)CCCC1=O | 13.7 | 21.1 | 204 |
| COc1ccc(C(O)c2coc3ccc(O)c(CN(C)C)c23)cc1 (stereo not drawn) | 11.2 | 21 | 202 |
| Cc1ccc2nc(COc3ccc(Cl)cc3)cc(=O)n2c1 | 14.3 | 10.4 | 143 |
| COc1ccccc1NC(=O)CSc1nc2ccccc2cc1Cc1ccccc1 | 28.8 | 11.5 | 311 |
| CCN(CC)S(=O)(=O)c1ccc(NC(=O)C2c3ccccc3Oc3ccccc32)cc1 | 31.1 | 15.9 | 260 |
| Cc1onc(-c2ccccc2Cl)c1C(=O)Nc1cccc(-c2nc3ncccn3c2C)c1 | 8.4 | 29.6 | 95.8 |
| Nc1cc(C(=O)OCC(=O)c2ccc(CC(=O)N3CCOCC3)s2)ccc1Cl | 26.9 | 33.8 | 247 |
| O=C(CN(C(=O)CSc1nnc(COc2ccccc2)o1)c1ccc(F)cc1)NC1CCCCC1 | 7.1 | 24.3 | 295 |
| CCOC(=O)c1sc(NC(=O)C2CC(=O)N(c3ccccc3OC)C2)nc1C (stereo not drawn) | 18.2 | 23.6 | 195 |
| CC(C)c1ccc(NC(=O)C2CCCCC2C(=O)O)cc1 (stereo not drawn) | 10.8 | 16.7 | 459 |
| C[C@H](CO)N1C[C@H](C)[C@@H](CN(C)Cc2ccc(Cl)c(Cl)c2)Oc2ccc(NC(=O)Cn3cnnn3)cc2C1=O | 25.4 | 7.9 | 563 |
| S=C(Nc1ccccn1)c1ccccn1 | 12.9 | 16.1 | 218 |
| O=c1cc(CN2CCCc3ccccc32)nc2sccn12 | 7.8 | 34.5 | 91.2 |
| COc1cccc(NC(=O)Cn2cc3c(n2)CCCCC3)c1 | 27 | 10.7 | 569 |
| O=C(c1ccc(Br)s1)N1CCN(c2ccccn2)CC1 | 28.6 | 10.8 | 326 |
| C[C@H](CO)N1C[C@H](C)[C@@H](CN(C)C)Oc2c(NS(=O)(=O)c3ccccc3)cccc2C1=O | 22.9 | 9.5 | 291 |
| CCC(C)n1c(=S)[nH]c2c(sc3ccc([N+](=O)[O-])cc32)c1=O (stereo not drawn) | 9.8 | 36.2 | 286 |
| CCOC(=O)c1c(N2C(=O)CC(Sc3ccccc3C(=O)O)C2=O)sc2c1CCCC2 (stereo not drawn) | 14.4 | 1.4 | 334 |
| O=C(CC1C(=O)NCCN1CC1CCCCC1)NCc1cc(F)ccc1F (stereo not drawn) | 12.7 | 32.9 | 186 |
| CCCNC(=O)NC(=O)CN1C(=O)NC(C)(c2ccc(C)cc2)C1=O (stereo not drawn) | 6.9 | 19.2 | 277 |

Arranged by SMILES length (high to low): some entries from above

| Structure (SMILES) | double positive events (at 7.7 µM) [%] | double positive events [1] [%] | percent response (vesicle binding) (at 7.7 µM) [%] |
| --- | --- | --- | --- |
| C[C@H](CO)N1C[C@H](C)[C@@H](CN(C)Cc2ccc(Cl)c(Cl)c2)Oc2ccc(NC(=O)Cn3cnnn3)cc2C1=O | 25.4 | 7.9 | 563 |
| Cc1onc(-c2ccccc2Cl)c1C(=O)Nc1cccc(-c2nc3ncccn3c2C)c1 | 8.4 | 29.6 | 95.8 |
| COc1ccccc1NC(=O)CSc1nc2ccccc2cc1Cc1ccccc1 | 28.8 | 11.5 | 311 |
| COc1cccc(NC(=O)Cn2cc3c(n2)CCCCC3)c1 | 27 | 10.7 | 569 |

Later entries:

| Structure (SMILES) | double positive events (at 7.7 µM) [%] | double positive events [1] [%] | percent response (vesicle binding) (at 7.7 µM) [%] |
| --- | --- | --- | --- |
| CCC(=O)Oc1ccc2ccccc2c1CNC(=O)c1ccccc1 | 9.9 | 18.3 | 133 |
| Fc1cc(F)c(NC(=S)N2CCOCC2)c(F)c1 | 32.6 | 10.4 | 278 |
| O=C(CCc1ccccc1)N/N=C/c1cc(Br)ccc1O | 17.2 | 25.8 | 222 |
| C/C(=N\NC(=O)c1ccco1)c1cc2ccccc2o1 | 10.1 | 19.7 | 451 |
| Cn1c(=O)[nH]c(=O)c2c1nc(NCCCn1ccnc1)n2Cc1cccc(Br)c1 | 9.3 | 17.2 | 348 |
| Cc1ccc(C)c(-n2sc3ccc(F)cc3c2=O)c1 | 3.2 | 12.6 | 168 |
| c1ccc(C(c2nnnn2C2CCCCC2)N2CCc3ccccc3C2)nc1 (stereo not drawn) | 20.3 | 21.1 | 204 |
| CCc1ccccc1NNC(=O)c1snnc1C | 27.3 | 21 | – |
| Cc1ccc(-c2noc(Cn3cc(S(=O)(=O)N4CCCC4)ccc3=O)n2)cc1 | 38.7 | 9.6 | 326 |
| O=C(NC1CCCC1)C(c1ccc(Cl)cc1)N(Cc1ccc(F)cc1)C(=O)CCl (stereo not drawn) | 11.5 | 7.7 | 515 |
| CCc1ccc(C(=O)N2CCCN(C)CC2)s1 | 6.7 | 19.6 | 314 |
| COCCN(C(=O)CNC(=O)c1cccs1)C(C(=O)NC1CCCC1)c1cccs1 (stereo not drawn) | 12.4 | 23.6 | 207 |
| Cc1ccc(OCc2cc(C(=O)N(CCO)Cc3cccs3)no2)cc1C | 14.5 | 29.1 | 95 |
| CN(CC(=O)Nc1ccccc1Cl)C(=O)COC(=O)c1cc(S(=O)(=O)N(C)C)ccc1N1CCCC1 | 10.6 | 18.8 | 138 |
| CCc1ccc(C(=O)NC(C(=O)NCC2CCCO2)C(C)C)cc1 (stereo not drawn) | 31.9 | 11.6 | 296 |
| CN(C)S(=O)(=O)c1cccc(C(=O)Nc2cc3c(cc2C(=O)O)OCCCO3)c1 | 9.8 | 24.2 | 116 |
| CCN(CC)C(=O)N1CCN(S(=O)(=O)c2ccc(C)cc2)CC1 | 17.1 | 19.1 | 184 |
| O=C1/C(=C\c2ccc3ccccc3c2)CCCc2ccccc21 | 8.9 | 26.1 | 172 |
| CCCn1c(SCC(=O)Nc2ccc(Cl)cc2)n[nH]c1=O | 43.3 | 13.3 | 336 |
| Oc1[nH]c2ccccc2c1/C=N/N1CCCCC1 | 29.8 | 20.1 | 199 |
| O=C(C[n+]1ccc2ccccc2c1)Nc1cc(C(F)(F)F)ccc1Cl | 30.8 | 19.3 | 206 |

| Structure (SMILES) | double positive events (at 7.7 µM) [%] | double positive events [1] [%] | percent response (vesicle binding) (at 7.7 µM) [%] |
| --- | --- | --- | --- |
| CCCCn1c(N)c(N(CCOC)C(=O)C2CC(=O)N(c3ccc(CC)cc3)C2)c(=O)[nH]c1=O (stereo not drawn) | 24.5 | 34.9 | 228 |
| CC(C)NC(=O)C1CCN(C(=O)N(C)C)CC1 | 8.9 | 31.4 | 143 |
| Cc1ccc(C)c(-n2c3nc(=O)[nH]c(=O)c-3cc3cc([N+](=O)[O-])ccc32)c1 | 6.2 | 14.4 | 325 |
| Cc1cc(C)nc(NC(=O)c2ccc([N+](=O)[O-])o2)n1 | 23.8 | 22.3 | 371 |
| Cc1cc(OCC(=O)N(C)c2c(N)n(Cc3ccccc3)c(=O)[nH]c2=O)c(C(C)C)cc1Cl | 13.3 | 24.8 | 181 |
| Cc1ccc(-c2n[nH]c(=S)n2-c2ccccc2)cc1 | 8.7 | 31.7 | 438 |
| CN1CCN(S(=O)(=O)c2ccc(N3CCN(c4ccccc4Cl)CC3)nc2)CC1 | 13.7 | 22.2 | 149 |
| O=C(CCC(=O)N1CCOCC1)NCc1cccc(C(F)(F)F)c1 | 11.9 | 4.9 | 427 |
| CCOc1ccc(C2CC(c3ccccc3C)n3nc(N)nc3N2)cc1 (stereo not drawn) | 28.4 | 15.8 | 116 |
| CC1CCCN(CC(=O)NC(=O)NC2CCCCC2)C1 (stereo not drawn) | 33.9 | 3.1 | 351 |
| Cn1nc(-c2ccccc2)c(C#N)c1Sc1cccc(Cl)c1 | 22.6 | 23.3 | 558 |
| COc1ccc(NC(=O)CSc2ccc(-c3ccccn3)nn2)cc1OC | 27.4 | 7.9 | 272 |
| Cc1ccccc1CNC1CCCCC1 | 25.2 | 6.8 | 368 |
| CN(C)C(CNS(=O)(=O)c1cc([N+](=O)[O-])ccc1Cl)c1ccco1 (stereo not drawn) | 26 | 25.6 | 186 |
| O=C(Cn1ncc2c(=O)oc3ccccc3c21)NCCCN1CCCC1=O | 18.8 | 16.2 | 107 |
| Cc1ccc(NC(=O)COC(=O)CCc2c[nH]c3ccccc23)c(C)c1 | 12.2 | 8.8 | 196 |
| CCOc1cc(C(=O)NCc2ccc3c(c2)OCO3)cc(OCC)c1OCC | 28.4 | 12.2 | 224 |
| CCCCNc1c(-c2ccc(OC)c(SC(C)CC)c2)nc2cc(C)ccn12 (stereo not drawn) | 13.3 | 10.6 | 67.8 |
| Cc1ccc(N=CC=C2OC(C)(C)C(C)(C)O2)cc1 | 12.5 | 17.9 | 176 |
| Cc1cc(C)c(NC(=O)COC(=O)C2CCCCC2)c(C)c1 | 33.1 | 6.7 | 491 |
